Test results: US20220409617A1, “Drug Formulations and Methods of Treatment for Metabolic Disorders” (The Regents of the University of California, priority 2019, published 2022)
At least one compound was matched to its structure with a doubt left.

System: mouse embryonic fibroblasts (MEFs)
Format: cell-based
Conditions: celastrol 500 nM

CC1=C(O)C(=O)C=C2C1=CC=C1[C@@]2(C)CC[C@@]2(C)[C@@H]3C[C@](C)(C(=O)O)CC[C@]3(C)CC[C@]12C [celastrol] was tested, and the “Protection from palmitate-induced mitochondrial fragmentation (aspect ratio, branch length, roundness)” value (3 h pre-treatment then palmitate 250 μM 3 h, 893 5 μM, myriocin 10 μM, fumonisin B1 30 μM, NAV-2729 12.5 μM, YM201636 800 nM) was “did not protect from palmitate-induced mitochondrial fission” and the “Mitochondrial morphology, compound as a single agent” value was “triggering severe mitochondrial fragmentation as a single agent”.
